The list shows only some results of the screen, not a fair sample: it gathers tests that were run many times, whatever their T/C, doses with no T/C, and many T/C values between a quarter and a half above the control. Other doses and runs of a compound stand elsewhere. T/C gives the treated animals as a percentage of the vehicle group. Some doses have a count of surviving animals in place of a T/C: the source holds a T/C of zero for them, seemingly a mark for toxic or unscored doses. Some survivor counts are full or nearly so, which does not show that the dose was tolerated: survival well below the control is almost never listed, so the zero probably covers shortened survival too. Counts of survivors are from the toxicity check (mostly the fifth day) where no day follows; animals may have died later. Schedule codes are those of the source, taken here to give the interval after Q, in days (D) or hours (H), and the number of doses after X. Some entries hold several experiments; their values stand side by side, smallest first. Where survival is the endpoint, this PubChem deposit counts one and a half times the control or more as active, and values a quarter to a half above the control carry no call in these data; other NCI protocols may use other cut-offs. Some T/C values are followed by the survivors on the day toxicity was checked, most often the fifth; where none is given, no animal had died by that day. Numbered stars: 1 amine (or outer) side, 2 acyl side, 3 side chain; on linkers, the order of the positions; unused ones are H or OH. Bridge positions count the residues as written; N and C are the ends. Square brackets hold non-standard residues; d marks the D form. Peptide text beside a SMILES is read from it. I, II: the chains in the order shown. Actinocin(9to1) = Cc1c2oc3c(C)ccc(C(=O)[*:1])c3nc-2c(C(=O)[*:2])c(N)c1=O; NMeV = CN[CH](C(=O)O)C(C)C; Sar = CNCC(=O)O
Tested on: BDF1 mice, B16 melanoma ip, median survival T/C
Assay: NCI In Vivo Anticancer Drug Screen. Data for tumor model B16 Melanoma (intraperitoneal) in B6D2F1 (BDF1) mice
Details: T/C endpoint: median survival time, higher T/C = longer survival
Protocol: The antitumor activity of compounds was measured in mice bearing transplantable tumors. Survival or tumor size were measured and the results are expressed as the measurement made in the treated group (T) divided by the measurement made in the vehicle treated control group (C). The tumor model used in this assay is B16 Melanoma (intraperitoneal) in B6D2F1 (BDF1) mice

[1] = dose: 400.0 mg/kg/injection, schedule: Q04DX003 (ip), vehicle: Klucel (hydroxypropylcellulose) (HPC)

Cc1c2oc3c(C)ccc(C(=O)NC4C(=O)NC(C(C)C)C(=O)N(C)CC(=O)N(C)CC(=O)N(C)C(C(C)C)C(=O)OC4C)c3nc-2c(C(=O)NC2C(=O)NC(C(C)C)C(=O)N(C)CC(=O)N(C)CC(=O)N(C)C(C(C)C)C(=O)OC2C)c(N)c1=O (centres undefined) (I: TV[Sar][Sar][NMeV] / II: TV[Sar][Sar][NMeV]; ester I:1-I:C, II:1-II:C; linker I:N-II:N via Actinocin(9to1); configuration not given here)
survivor count (dose: 1.6 mg/kg/injection, schedule: Q01DX009 (ip), vehicle: water): 10 of 10
survivor count (dose: 2.4 mg/kg/injection, schedule: Q01DX009 (ip), vehicle: water): 10 of 10
T/C (dose: 250.0 micrograms/kg/injection, schedule: Q01DX009 (ip), vehicle: saline + alcohol): 142 % of control
T/C (dose: 500.0 micrograms/kg/injection, schedule: Q01DX009 (ip), vehicle: saline + alcohol): 142 % of control
T/C (dose: 750.0 micrograms/kg/injection, schedule: Q04DX003 (ip), vehicle: saline + alcohol): 139 and 144 % of control
T/C (dose: 1000.0 micrograms/kg/injection, schedule: Q01DX009 (ip), vehicle: saline + alcohol): 140 % of control
T/C (dose: 1500.0 micrograms/kg/injection, schedule: Q04DX003 (ip), vehicle: saline + alcohol): 126 % of control
survivor count (dose: 2000.0 micrograms/kg/injection, schedule: Q01DX009 (ip), vehicle: saline + alcohol): 10 of 10
T/C (dose: 3000.0 micrograms/kg/injection, schedule: Q04DX003 (ip), vehicle: saline + alcohol): 133 % of control
survivor count (dose: 6000.0 micrograms/kg/injection, schedule: Q04DX003 (ip), vehicle: saline + alcohol): 5 of 10 and 6 of 10

CC/C(C)=C(/C(=O)O)c1ccccc1
survivor count (dose: 400.0 mg/kg/injection, schedule: Q01DX009 (ip), vehicle: saline with Tween-80): 10 of 10

CCOC(=O)C(Cc1ccccc1)NP(=O)(OCCCl)OCCCl (centres undefined)
survivor count [1]: 10 of 10

CC(CN1CCN(C)CC1)CN1c2ccccc2Sc2ccc(C(F)(F)F)cc21 (centres undefined)
survivor count (dose: 25.0 mg/kg/injection, schedule: Q01DX009 (ip), vehicle: saline): 10 of 10

C/C=C(\C)c1cc(=O)c2c(C)cc3c(c2o1)C(=O)c1c(O)c(C2CC(C)(N(C)C)C(O)C(C)O2)cc(C2CC(N(C)C)C(O)C(C)O2)c1C3=O (centres undefined)
survivor count (dose: 0.62 mg/kg/injection, schedule: Q01DX009 (ip), vehicle: saline): 10 of 10
T/C (dose: 1.0 mg/kg/injection, schedule: Q01DX009 (ip), vehicle: Klucel (hydroxypropylcellulose) (HPC)): 130 % of control
survivor count (dose: 1.25 mg/kg/injection, schedule: Q01DX009 (ip), vehicle: saline): 10 of 10
T/C (dose: 2.0 mg/kg/injection, schedule: Q01DX009 (ip), vehicle: Klucel (hydroxypropylcellulose) (HPC)): 131 % of control
survivor count (dose: 2.5 mg/kg/injection, schedule: Q01DX009 (ip), vehicle: saline): 10 of 10
survivor count (dose: 4.0 mg/kg/injection, schedule: Q01DX009 (ip), vehicle: Klucel (hydroxypropylcellulose) (HPC)): 10 of 10
survivor count (dose: 5.0 mg/kg/injection, schedule: Q01DX009 (ip), vehicle: saline): 5 of 10
T/C (dose: 78.0 micrograms/kg/injection, schedule: Q01DX009 (ip), vehicle: saline): 138 % of control
T/C (dose: 78.12 micrograms/kg/injection, schedule: Q01DX009 (ip), vehicle: saline): 125 % of control [9 of 10 alive]
T/C (dose: 125.0 micrograms/kg/injection, schedule: Q01DX009 (ip), vehicle: saline): 131 % of control
T/C (dose: 156.25 micrograms/kg/injection, schedule: Q01DX009 (ip), vehicle: saline): 132 % of control
T/C (dose: 312.0 micrograms/kg/injection, schedule: Q01DX009 (ip), vehicle: saline): 137 % of control
survivor count (dose: 500.0 micrograms/kg/injection, schedule: Q01DX009 (ip), vehicle: saline): 10 of 10
survivor count (dose: 1000.0 micrograms/kg/injection, schedule: Q01DX009 (ip), vehicle: saline): 10 of 10
survivor count (dose: 1250.0 micrograms/kg/injection, schedule: Q01DX009 (ip), vehicle: saline): 10 of 10

Cc1cc2nc3ccc(=[N+](C)C)cc-3sc2cc1N
T/C (dose: 6.25 mg/kg/injection, schedule: Q01DX009 (ip), vehicle: saline): 125 % of control
survivor count (dose: 100.0 mg/kg/injection, schedule: Q01DX009 (ip), vehicle: saline): 4 of 10
survivor count (dose: 200.0 mg/kg/injection, schedule: Q01DX009 (ip), vehicle: saline): 0 of 10
survivor count (dose: 400.0 mg/kg/injection, schedule: Q01DX009 (ip), vehicle: saline): 0 of 10

O=S(=O)(O)O
survivor count (dose: 100.0 mg/kg/injection, schedule: Q01DX009 (ip), vehicle: Klucel (hydroxypropylcellulose) (HPC)): 10 of 10
survivor count (dose: 200.0 mg/kg/injection, schedule: Q01DX009 (ip), vehicle: Klucel (hydroxypropylcellulose) (HPC)): 0 of 10

COc1cc(C(=O)CO)cc(OC)c1OC(C)=O
survivor count (dose: 400.0 mg/kg/injection, schedule: Q04DX003 (ip), vehicle: saline with Tween-80): 10 of 10

CCOC(=O)/N=[N+](\[O-])c1ccccc1
survivor count (dose: 50.0 mg/kg/injection, schedule: Q01DX009 (ip), vehicle: saline with Tween-80): 3 of 10

Cc1ccc(S(=O)(=O)N(Cc2cccc(CN(S(=O)(=O)c3ccc(C)cc3)S(=O)(=O)c3ccc(C)cc3)c2)S(=O)(=O)c2ccc(C)cc2)cc1
survivor count (dose: 200.0 mg/kg/injection, schedule: Q04DX003 (ip), vehicle: Klucel (hydroxypropylcellulose) (HPC)): 10 of 10
survivor count [1]: 10 of 10

COC1C=COC2(C)Oc3c(C)c(O)c4c(c3C2=O)/C(=N/C2CCC(O)OC2C)C=C(NC(=O)/C(C)=C\C(=O)C2CC2C(O)C(C)C(O)C(C)C(OC(C)=O)C1C)C4=O (centres undefined)
survivor count (dose: 9.25 mg/kg/injection, schedule: Q01DX009 (ip), vehicle: saline with Tween-80): 8 of 8
survivor count (dose: 37.0 mg/kg/injection, schedule: Q01DX009 (ip), vehicle: saline with Tween-80): 10 of 10
survivor count (dose: 75.0 mg/kg/injection, schedule: Q01DX009 (ip), vehicle: saline with Tween-80): 10 of 10

CC1(C)Oc2c(ccc(O)c2CN2CCOCC2)C2=C1CCCC2
survivor count (dose: 512.0 mg/kg/injection, schedule: Q01DX009 (ip), vehicle: Klucel (hydroxypropylcellulose) (HPC)): 5 of 5

O=S(O)OS(=O)O
survivor count (dose: 400.0 mg/kg/injection, schedule: Q04DX003 (ip), vehicle: saline): 7 of 10

CC1CC(NC(=S)S)CC(C)(C)C1 (centres undefined)
survivor count (dose: 2.5 mg/kg/injection, schedule: Q01DX009 (ip), vehicle: Klucel (hydroxypropylcellulose) (HPC)): 10 of 10
survivor count (dose: 5.0 mg/kg/injection, schedule: Q01DX009 (ip), vehicle: Klucel (hydroxypropylcellulose) (HPC)): 10 of 10
survivor count (dose: 10.0 mg/kg/injection, schedule: Q01DX009 (ip), vehicle: Klucel (hydroxypropylcellulose) (HPC)): 10 of 10
survivor count (dose: 12.5 mg/kg/injection, schedule: Q01DX009 (ip), vehicle: Klucel (hydroxypropylcellulose) (HPC)): 10 of 10
survivor count (dose: 25.0 mg/kg/injection, schedule: Q01DX009 (ip), vehicle: Klucel (hydroxypropylcellulose) (HPC)): 10 of 10
survivor count (dose: 50.0 mg/kg/injection, schedule: Q01DX009 (ip), vehicle: Klucel (hydroxypropylcellulose) (HPC)): 10 of 10
